Measurements as given in publication PMC6736568, “Discovery of Novel Anti-cryptosporidial Activities From Natural Products by in vitro High-Throughput Phenotypic Screening” (Frontiers in Microbiology, 2019).
*1 amine or outer side, *2 acyl side, *3 side chain or, on linkers, in order; H or OH if unused. Where a SMILES comes first, the peptide text is derived from it. Bridges are numbered along the chain shown (N, C = ends). Roman numbers before positions name the chains, in order. [ ]: non-standard residue; d: D form. Actinocin(9to1) = Cc1c2oc3c(C)ccc(C(=O)[*:1])c3nc-2c(C(=O)[*:2])c(N)c1=O; NMeV = CN[C@H](C(=O)O)C(C)C; Sar = CNCC(=O)O

Each compound was assayed on HCT-8 cells (assay: In vitro cytotoxicity MTS assay on host cells). Conditions: not given.
Assay type: cell-based, human
Method: The plates were measured for absorbance at 490 nm in 15 min intervals in a SmartReader 96 microplate reader (Accuris, Edison, NJ, United States). Cytotoxicity of a compound was quantified by calculating the half maximal toxic concentration on host cells (TC50). An in vitro safety interval (SI) was calculated by determining the ratio between TC50 and EC50 values (i.e., SI = TC50/EC50).

| Compound | SI |
| --- | --- |
| COc1cccc2c1C(=O)c1c(O)c3c(c(O)c1C2=O)C[C@@](O)(C(C)=O)C[C@@H]3O[C@H]1C[C@H](N)[C@H](O)[C@H](C)O1 [Daunorubicin, reference compound] | 28.5 |

Same assay, conditions: in vitro safety interval, SI = TC50/EC50

| Compound | SI |
| --- | --- |
| Cc1coc2c1C(=O)C(=O)c1c-2ccc2c1CCCC2(C)C [Tanshinone IIA] | > 104 |
| COC(=O)C[C@H]1C(C)(C)[C@@H](O)[C@@H]2CC3=C4C=C(OC)O[C@@H](c5ccoc5)[C@]4(C)CCC3[C@@]1(C)C2=O (stereo partly drawn) [3-Deoxo-3beta-hydroxy-mexicanolide 16-enol ether] | >25.4 |
| COc1ccc2c(c1)OC[C@H](Cc1ccc(OC)c(O)c1)C2=O [Deoxysappanone B 7,4′-dimethyl ether] | 88.9 |
| CC1(C)C(=O)C=C[C@]2(C)[C@H]3CC[C@@]4(C)[C@H](c5ccoc5)OC(=O)[C@H]5O[C@]54[C@]3(C)[C@H](O)C[C@@H]12 [Deacetylgedunin] | 17.4 |
| Cc1c2oc3c(C)ccc(C(=O)N[C@@H]4C(=O)N[C@H](C(C)C)C(=O)N5CCC[C@H]5C(=O)N(C)CC(=O)N(C)[C@@H](C(C)C)C(=O)O[C@@H]4C)c3nc-2c(C(=O)N[C@@H]2C(=O)N[C@H](C(C)C)C(=O)N3CCC[C@H]3C(=O)N(C)CC(=O)N(C)[C@@H](C(C)C)C(=O)O[C@@H]2C)c(N)c1=O [Dactinomycin, reference compound] (I: T[dV]P[Sar][NMeV] / II: T[dV]P[Sar][NMeV]; ester I:1-I:C, II:1-II:C; linker I:N-II:N via Actinocin(9to1)) | 9.10 |
| CC1(C)C(=O)C=C[C@]2(C)[C@H]3CC[C@@]4(C)[C@H](c5ccoc5)OC(=O)[C@H]5O[C@]54[C@]3(C)C(=O)C[C@@H]12 [Deacetoxy-7-oxogedunin] | 6.59 |
| Cc1cccc2c3c(ccc12)C1=C(C(=O)C3=O)[C@@H](C)CO1 [Dihydrotanshinone I] | 8.11 |
| O=c1cc(-c2ccccc2)oc2cc(O)c(O)c(O)c12 [Baicalein] | > 102 |
| COc1ccc(C(=O)c2ccc(O)cc2)c(O)c1O [2,3,4′-Trihydroxy-4-methoxybenzophenone] | >27.1 |
| CO[C@@]12[C@H](COC(N)=O)C3=C(C(=O)C(C)=C(N)C3=O)N1C[C@@H]1N[C@@H]12 [Mitomycin, reference compound] | 98.7 |
| COc1ccc2c(c1)OCC(Cc1ccc(OC)c(OC(C)=O)c1)C2=O (stereo not shown) [Deoxysappanone B 7,3′-dimethyl ether acetate] | >84 |
| CC[C@H](C)C(=O)O[C@H]1C[C@@H](C)C=C2C=C[C@H](C)[C@H](CC[C@@H]3C[C@@H](O)CC(=O)O3)[C@H]21 [Lovastatin, reference compound] | >41.6 |
| CC1(C)C(=O)C=C[C@@]2(C)C1=C(O)C(=O)[C@]1(C)[C@@H]2CC[C@@]2(C)[C@H](c3ccoc3)C[C@H]3O[C@]321 [Cedrelone] | 13.4 |
| CC(C)[C@@H]1NC(=O)[C@H](C)OC(=O)[C@@H](C(C)C)NC(=O)[C@@H](C(C)C)OC(=O)[C@H](C(C)C)NC(=O)[C@H](C)OC(=O)[C@@H](C(C)C)NC(=O)[C@@H](C(C)C)OC(=O)[C@H](C(C)C)NC(=O)[C@H](C)OC(=O)[C@@H](C(C)C)NC(=O)[C@@H](C(C)C)OC1=O [Valinomycin, reference compound] | >410 |
| CC(C)=CCCC1(C)C=Cc2c(O)c3c(c(CC=C(C)C)c2O1)OC12C(=CC4CC1C(C)(C)OC2(C/C=C(/C)C(=O)O)C4O)C3=O (stereo not shown) [Dihydrogambogic acid] | 3.78 |

Same assay, conditions: in vitro safety interval, SI = TC50/EC50; listed as 2,3,4'-Trihydroxy-4- methoxybenzophenone

| Compound | SI |
| --- | --- |
| COc1ccc(C(=O)c2ccc(O)cc2)c(O)c1O [2,3,4′-Trihydroxy-4-methoxybenzophenone] | > 27.1 |

Same assay, conditions: in vitro safety interval, SI = TC50/EC50; listed as 3-Deoxo-3beta-hydroxy- mexicanolide 16-enol ether

| Compound | SI |
| --- | --- |
| COC(=O)C[C@H]1C(C)(C)[C@@H](O)[C@@H]2CC3=C4C=C(OC)O[C@@H](c5ccoc5)[C@]4(C)CCC3[C@@]1(C)C2=O (stereo partly drawn) [3-Deoxo-3beta-hydroxy-mexicanolide 16-enol ether] | > 25.4 |

Same assay, conditions: in vitro safety interval, SI = TC50/EC50; listed as Deoxysappanone B 7,3'- dimethyl ether acetate (Deox B 7,3)

| Compound | SI |
| --- | --- |
| COc1ccc2c(c1)OCC(Cc1ccc(OC)c(OC(C)=O)c1)C2=O (stereo not shown) [Deoxysappanone B 7,3′-dimethyl ether acetate] | > 84 |
